According to publication PMC11346181:
No constants are given. Whether binding was seen depends on the method and setting. Binding seen in cells or lysates may run through a third protein. Some results given as binding are weak or reduced against the parent protein; the word gives no strength.

The chains behind the UniProt entries cited, without tags or fusion partners.
UniProt Q8BK63: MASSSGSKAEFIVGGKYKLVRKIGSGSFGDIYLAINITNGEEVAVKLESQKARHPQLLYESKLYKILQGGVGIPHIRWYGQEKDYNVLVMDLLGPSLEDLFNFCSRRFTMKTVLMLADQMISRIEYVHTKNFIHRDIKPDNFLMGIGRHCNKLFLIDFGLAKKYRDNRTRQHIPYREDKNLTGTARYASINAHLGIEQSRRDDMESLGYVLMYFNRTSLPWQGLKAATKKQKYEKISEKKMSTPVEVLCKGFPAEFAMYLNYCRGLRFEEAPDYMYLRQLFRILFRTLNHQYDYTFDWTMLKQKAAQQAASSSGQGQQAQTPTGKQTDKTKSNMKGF

Biological target: Casein kinase 1α (mouse (endogenous in ovarian tissue and primary ovarian granulosa cells)) (UniProt Q8BK63)
Experiment: co-IP; ovarian tissues and primary ovarian GCs lysed in precooled NP40 buffer; 500 μg sample with 2 μg anti-CK1α antibody or anti-IgG antibody for 2 h, protein A/G agarose beads overnight at 4 °C, 5 washes with NP40 buffer, analysed by WB

## RAF1 (from UniProt Q99N57 1-648) (enzyme)
  binding: binds
